PubChem BioAssay AID1159578 | Peter MacCallum Cancer Centre – 2015

Aim: 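siRNA pools altering how lymphatic endothelial cells close a scratch wound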 (primary screen)
Cell system: human lymphatic endothelial cells
Reagent: siRNA pool against human genes, 40 nM
Duration: 48 h after transfection
Measurement: 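Cells stained with dye and imaged after a scratch; covered wound area and nuclei counted, duplicates averaged, migration set against mock wells and turned into a robust z-score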
Reading the numbers: migration robust z-score: higher = faster migration into the scratch; migration relative to mock: higher = more scratch area covered than mock; nuclei per well: higher = more cells in the well
Rule for the call: 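Pools averaging fewer than 3300 nuclei are never called; remaining pools count as changed when migration robust z lies outside -2 to 2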
Calls: active = migration changed; inactive = no migration change, or too few cells
Here is one part, drawn at random, of about 18,000 deposited reagents. Over the whole deposit, about 1,030 (5.7%) are marked active. 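Inactive calls also include pools with fewer than 3300 nuclei, whose migration was not assessed.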 Raw values are not corrected between plates. Unmarked entries are inactive.

gene	migration robust z-score	migration class with cell-count check	migration relative to mock	nuclei per well, duplicate mean
HSPB1 (GeneID 3315)	0.28	migration z between -2 and 2; enough cells	0.96	4904
OR10J1 (GeneID 26476)	0.4	migration z between -2 and 2; enough cells	0.99	5734
SEC61G (GeneID 23480)	-0.57	migration z between -2 and 2; enough cells	0.74	5516
KLHL10 (GeneID 317719)	-0.44	migration z between -2 and 2; enough cells	0.77	6845
PRPH2 (GeneID 5961)	-0.39	migration z between -2 and 2; enough cells	0.73	5844
DRAM2 (GeneID 128338)	-0.18	migration z between -2 and 2; enough cells	0.84	4911
TMEM65 (GeneID 157378)	0.56	migration z between -2 and 2; enough cells	1.04	4956
PLIN3 (GeneID 10226)	0.06	migration z between -2 and 2; enough cells	0.9	4127
HLX (GeneID 3142)	-2.91 (active)	migration z below -2; enough cells	0.24	3481
TBC1D2B (GeneID 23102)	0.18	migration z between -2 and 2; enough cells	0.93	5459
RPS6KL1 (GeneID 83694)	-0.23	migration z between -2 and 2; enough cells	0.76	5217
CWF19L1 (GeneID 55280)	0.24	migration z between -2 and 2; enough cells	0.94	5562
RBMXL2 (GeneID 27288)	-0.78	migration z between -2 and 2; enough cells	0.68	6235
FBN1 (GeneID 2200)	1.13	migration z between -2 and 2; enough cells	1.18	5726
RHBDL3 (GeneID 162494)	0.11	migration z between -2 and 2; enough cells	0.82	5212
MMP1 (GeneID 4312)	0.24	migration z between -2 and 2; enough cells	0.85	4826
NUP85 (GeneID 79902)	0.14	migration z between -2 and 2; enough cells	0.92	6808
PCDHGA12 (GeneID 26025)	-0.14	migration z between -2 and 2; enough cells	0.85	5936
PHYHIP (GeneID 9796)	0.34	migration z between -2 and 2; enough cells	0.98	5228
PPM1E (GeneID 22843)	-1.92	migration z between -2 and 2; enough cells	0.44	4729
PCGF1 (GeneID 84759)	-0.2	migration z between -2 and 2; enough cells	0.76	5200
UBE2Z (GeneID 65264)	0.26	migration z between -2 and 2; enough cells	0.85	4916
MECR (GeneID 51102)	0	migration z between -2 and 2; enough cells	0.88	7377
TOR3A (GeneID 64222)	-0.08	migration z between -2 and 2; enough cells	0.79	4167
ZNF653 (GeneID 115950)	0.69	migration z between -2 and 2; enough cells	1.06	5934
C7orf33 (GeneID 202865)	-0.15	migration z between -2 and 2; enough cells	0.84	4948
CLCA4 (GeneID 22802)	-0.6	migration z between -2 and 2; enough cells	0.69	4996
OR13J1 (GeneID 392309)	-0.64	migration z between -2 and 2; enough cells	0.72	7679
CKAP2 (GeneID 26586)	0.26	migration z between -2 and 2; enough cells	0.96	5304
ATF4 (GeneID 468)	-1.46	migration z between -2 and 2; enough cells	0.52	4985
IFNA6 (GeneID 3443)	-0.76	migration z between -2 and 2; enough cells	0.68	5360
MPIG6B (GeneID 80739)	-0.56	migration z between -2 and 2; enough cells	0.74	5676
NR1H4 (GeneID 9971)	-0.05	migration z between -2 and 2; enough cells	0.8	4316
NR2C2 (GeneID 7182)	-0.18	migration z between -2 and 2; enough cells	0.84	6675
INTU (GeneID 27152)	-0.2	migration z between -2 and 2; enough cells	0.83	6241
HTR6 (GeneID 3362)	-0.68	migration z between -2 and 2; enough cells	0.68	5928
CP (GeneID 1356)	0.8	migration z between -2 and 2; enough cells	0.96	4822
CCDC186 (GeneID 55088)	-0.21	migration z between -2 and 2; enough cells	0.83	6325
ABHD2 (GeneID 11057)	0.49	migration z between -2 and 2; enough cells	0.9	5624
HINT2 (GeneID 84681)	-1.82	under 3300 nuclei; migration not judged	0.42	3171
MYO5C (GeneID 55930)	0.02	migration z between -2 and 2; enough cells	0.81	6436

Part of the list above, reformatted:
{"gene": "PLIN3 (GeneID 10226)", "migration robust z-score": 0.06, "migration class with cell-count check": "migration z between -2 and 2; enough cells", "migration relative to mock": 0.9, "nuclei per well, duplicate mean": 4127}
{"gene": "HLX (GeneID 3142)", "migration robust z-score": "-2.91 (active)", "migration class with cell-count check": "migration z below -2; enough cells", "migration relative to mock": 0.24, "nuclei per well, duplicate mean": 3481}
{"gene": "TBC1D2B (GeneID 23102)", "migration robust z-score": 0.18, "migration class with cell-count check": "migration z between -2 and 2; enough cells", "migration relative to mock": 0.93, "nuclei per well, duplicate mean": 5459}
{"gene": "RPS6KL1 (GeneID 83694)", "migration robust z-score": -0.23, "migration class with cell-count check": "migration z between -2 and 2; enough cells", "migration relative to mock": 0.76, "nuclei per well, duplicate mean": 5217}

Further records follow:
gene	migration robust z-score	migration class with cell-count check	migration relative to mock	nuclei per well, duplicate mean
MRPS24 (GeneID 64951)	-0.08	migration z between -2 and 2; enough cells	0.86	5504
PPP1R7 (GeneID 5510)	1.82	migration z between -2 and 2; enough cells	1.16	4814
EPS15 (GeneID 2060)	0.98	migration z between -2 and 2; enough cells	1.14	5650
PARP2 (GeneID 10038)	1.03	migration z between -2 and 2; enough cells	1	5218
SFT2D1 (GeneID 113402)	0.8	migration z between -2 and 2; enough cells	1.08	5280
PPME1 (GeneID 51400)	-2.21 (active)	migration z below -2; enough cells	0.38	4132
SATB2 (GeneID 23314)	0.96	migration z between -2 and 2; enough cells	1.13	5602
FNDC3A (GeneID 22862)	0.14	migration z between -2 and 2; enough cells	0.92	6568
RRP8 (GeneID 23378)	1.55	migration z between -2 and 2; enough cells	1.29	5512
GJA5 (GeneID 2702)	0.31	migration z between -2 and 2; enough cells	0.86	6412
TOMM7 (GeneID 54543)	0.4	migration z between -2 and 2; enough cells	0.99	7495
QARS1 (GeneID 5859)	-0.56	migration z between -2 and 2; enough cells	0.74	8438
SHC3 (GeneID 53358)	-1.34	under 3300 nuclei; migration not judged	0.54	3262
LASP1 (GeneID 3927)	-0.46	migration z between -2 and 2; enough cells	0.76	5806
FOXN4 (GeneID 121643)	1.34	migration z between -2 and 2; enough cells	1.23	6178
GPR3 (GeneID 2827)	1.55	migration z between -2 and 2; enough cells	1.1	6408
PACSIN2 (GeneID 11252)	0.36	migration z between -2 and 2; enough cells	0.98	6060
PP2D1 (GeneID 151649)	0.6	migration z between -2 and 2; enough cells	0.92	5956
SNRPF (GeneID 6636)	-0.56	migration z between -2 and 2; enough cells	0.74	5082
RER1 (GeneID 11079)	0.32	migration z between -2 and 2; enough cells	0.98	6226
ADIRF (GeneID 10974)	-1.12	migration z between -2 and 2; enough cells	0.6	4314
TPMT (GeneID 7172)	-1.08	migration z between -2 and 2; enough cells	0.6	5631
HJURP (GeneID 55355)	0.63	migration z between -2 and 2; enough cells	1.05	6408
GRIN3B (GeneID 116444)	-0.68	migration z between -2 and 2; enough cells	0.68	5394
GSC (GeneID 145258)	-0.67	migration z between -2 and 2; enough cells	0.71	6102
NRP1 (GeneID 8829)	0.18	migration z between -2 and 2; enough cells	0.84	5564
TFPI2 (GeneID 7980)	-1.03	migration z between -2 and 2; enough cells	0.6	6388
CRYBA1 (GeneID 1411)	0.28	migration z between -2 and 2; enough cells	0.96	6444
TMIGD1 (GeneID 388364)	-0.67	migration z between -2 and 2; enough cells	0.71	3619
POLR3B (GeneID 55703)	-1.84	migration z between -2 and 2; enough cells	0.45	6033
ZNF781 (GeneID 163115)	2.04 (active)	migration z above 2; enough cells	1.41	6480
CFH (GeneID 3075)	-0.54	migration z between -2 and 2; enough cells	0.74	6354
